No constants are given. Whether binding was seen depends on the method and setting. Binding calls can cover weak binding; strength is not graded here.

The chains behind the UniProt entries cited, without tags or fusion partners. Where a name states a change or a piece, a line headed by the entry shows the natural chain unless it says otherwise.
UniProt P10591: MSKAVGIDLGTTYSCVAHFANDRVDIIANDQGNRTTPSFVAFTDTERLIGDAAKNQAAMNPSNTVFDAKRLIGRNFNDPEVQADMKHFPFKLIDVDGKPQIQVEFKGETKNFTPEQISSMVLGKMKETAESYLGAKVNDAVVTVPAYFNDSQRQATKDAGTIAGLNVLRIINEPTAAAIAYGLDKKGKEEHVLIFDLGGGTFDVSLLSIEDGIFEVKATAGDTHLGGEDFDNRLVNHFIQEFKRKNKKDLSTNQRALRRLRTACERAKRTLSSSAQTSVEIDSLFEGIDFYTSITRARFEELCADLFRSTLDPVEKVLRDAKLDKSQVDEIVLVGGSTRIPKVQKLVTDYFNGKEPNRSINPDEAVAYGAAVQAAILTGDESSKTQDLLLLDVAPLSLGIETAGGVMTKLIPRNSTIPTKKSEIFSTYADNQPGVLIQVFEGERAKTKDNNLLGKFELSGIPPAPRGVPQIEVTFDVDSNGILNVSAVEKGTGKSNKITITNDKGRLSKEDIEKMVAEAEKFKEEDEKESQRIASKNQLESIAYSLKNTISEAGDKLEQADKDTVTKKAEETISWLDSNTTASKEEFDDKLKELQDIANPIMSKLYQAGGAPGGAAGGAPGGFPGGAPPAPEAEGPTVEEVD
UniProt P32589: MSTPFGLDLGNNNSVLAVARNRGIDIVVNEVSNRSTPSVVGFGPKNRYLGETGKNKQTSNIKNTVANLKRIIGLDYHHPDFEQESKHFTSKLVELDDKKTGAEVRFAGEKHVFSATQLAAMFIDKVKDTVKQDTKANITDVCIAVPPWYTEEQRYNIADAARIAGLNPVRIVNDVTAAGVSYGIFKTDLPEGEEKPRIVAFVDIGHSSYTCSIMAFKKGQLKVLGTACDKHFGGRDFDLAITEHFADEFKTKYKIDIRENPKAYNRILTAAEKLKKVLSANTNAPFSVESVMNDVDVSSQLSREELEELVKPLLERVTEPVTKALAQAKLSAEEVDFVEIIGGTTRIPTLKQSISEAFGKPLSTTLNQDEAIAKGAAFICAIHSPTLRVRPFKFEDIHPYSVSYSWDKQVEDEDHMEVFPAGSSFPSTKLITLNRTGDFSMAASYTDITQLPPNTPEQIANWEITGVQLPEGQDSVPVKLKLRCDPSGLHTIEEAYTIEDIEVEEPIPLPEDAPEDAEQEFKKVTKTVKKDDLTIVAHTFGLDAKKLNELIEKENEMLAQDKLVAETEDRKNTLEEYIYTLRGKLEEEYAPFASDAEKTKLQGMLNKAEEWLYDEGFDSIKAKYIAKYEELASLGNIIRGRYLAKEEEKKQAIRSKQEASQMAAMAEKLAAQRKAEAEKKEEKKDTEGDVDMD

This assay addresses Ssa1 (yeast (S. cerevisiae)) (UniProt P10591). The experiment in a line: BLI; His-Sis1 (0.4 µM, to saturation) on the Ni-NTA sensor through the His6-SUMO tag; 1 µM Ssa1 with increasing concentrations of Sse1 or Sse1-2; buffer A with 5 mM ATP and 2 mM DTT; both purified.

Take “Sse1-2 variant (N572Y E575A) (from UniProt P32589)”: the binding entry is given as “binds weakly”.

The values above are taken from article PMC11479587.
